Reference: PubChem BioAssay AID504648 (National Center for Advancing Translational Sciences (NCATS), 2011)
Among all 390,000 compounds or so, about 610 (0.16%) were called active. The inconclusive results got no clear call from the source; some entries with a clear call stand among them for comparison. The call rests on the fitted dose curve; in most records, active means well fitted inhibition curve with a large enough effect; inconclusive means small, poorly fitted or top-dose-only effect, or effect the other way, or another doubt; inactive means no such curve, though single readings can be large or run the other way. Potencies of inconclusive entries are doubtful fits and often do not repeat.
On the % scale 0 is the no-effect control and ±100 the full control effect; potency means the concentration at half of the fitted maximal effect.

Assay: Nrf2 qHTS screen for inhibitors: counterscreen for cytotoxicity
Conditions: A549 ARE-Fluc cells, CellTiter-Fluor viability, 18-24 h; activity change, negative = cytotoxicity: at 46 µM (top of the series)
Outline: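 Cytotoxicity counterscreen: CellTiter-Fluor fluorescence was measured in A549 ARE_Fluc cells after 18-24 h of compound exposure in a concentration series. The subsequent BugLite luminescent read reports ARE-luciferase activity.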
For `CCOc1ccc2nc(NC(=O)C3CCCN(S(=O)(=O)c4cccs4)C3)sc2c1` (stereo unspecified), the Potency was inconclusive: 11.6 µM [falling, partial curve].
In the case of `Oc1ccc(C2C=C(c3ccc(F)cc3)Nc3ncnn32)cc1` (stereo unspecified), the “activity change, negative = cytotoxicity” value is reported as inactive: 0.795%.
With `CCOC(=O)C1=C(COC(=O)/C=C/c2cccc(OC)c2OC)NC(=O)NC1C` (stereo unspecified) the “activity change, negative = cytotoxicity” value was inactive: -0.513%.
In the case of `CCOC(=O)N1CCC(Nc2ccc(N3C(=O)C4CCCCC4C3=O)cc2[N+](=O)[O-])CC1` (stereo unspecified), the Potency is reported as inconclusive: 20.6 µM [falling, partial curve, poor fit].
With `CCOC(=O)c1sc(NC(=O)c2cccc(S(=O)(=O)N3CCc4ccccc43)c2)c(C#N)c1C` the Potency was inconclusive: 9.2 µM [falling, partial curve].
In the case of `O=C(O)CC1(CC(=O)Nc2cccc(C(=O)O)c2)CCCC1`, the “activity change, negative = cytotoxicity” value is reported as inactive: 12.7%.
For `O=C(c1ccco1)N1CCN(C(c2ccccc2F)c2nnnn2CC2CCCO2)CC1` (stereo unspecified), the Potency was inconclusive: 0.013 µM [activator, full curve, poor fit].
With `CC(C)n1c(/C=C/[C@@H](O)C[C@@H](O)CC(=O)O)c(-c2ccc(F)cc2)c2ccccc21` the Potency was inconclusive: 20.6 µM [falling, single point].
With `O=C(c1ccc(CS(=O)(=O)c2cccc(C(F)(F)F)c2)o1)N1CCN(c2ccccn2)CC1` the Potency was inconclusive: 23.1 µM [activator, partial curve, poor fit].
In the case of `COc1ccc(Nc2nc(N)c(C(=O)c3ccc(OC)cc3)s2)cc1`, the “activity change, negative = cytotoxicity” value is reported as inactive: 2.42%.
For `COc1cc2cc(C(c3nnnn3C3CCCCC3)N(C)C3CCCCC3)c(=O)[nH]c2cc1OC` (stereo unspecified), the Potency was inconclusive: 23.1 µM [falling, single point].
In the case of `Cc1cccc(Nc2nc(N)nc(CN3CCN(Cc4ccc5c(c4)OCO5)CC3)n2)c1`, the Potency is reported as inconclusive: 6.51 µM [activator, partial curve, poor fit].
With `COc1cc(C#Cc2c(-c3cncn3C)n(C)c3ccc(-c4cnc(OC)nc4)cc23)cc(OC)c1` the Potency was inconclusive: 16.4 µM [falling, partial curve, poor fit].
In the case of `CCOC(=O)c1c(C)oc2nc(C)nc(Nc3cc(C)cc(C)c3)c12`, the “activity change, negative = cytotoxicity” value is reported as inactive: 3.23%.
With `Cn1c2c(c3ccccc31)CCN(CCCCN1CCN(c3ccccc3)CC1)C2=O` the Potency was inconclusive: 20.6 µM [falling, partial curve, poor fit].
For `Cc1cc(C(=O)OCC(=O)NC(=O)C2CCCCC2)ccc1[N+](=O)[O-]`, the “activity change, negative = cytotoxicity” value was inactive: -2.38%.
In the case of `COc1ccc(CN(C)C(=O)CCN(c2ccccc2)S(=O)(=O)c2ccc(C)cc2)c(OC)c1`, the Potency is reported as inconclusive: 10.3 µM [falling, partial curve, poor fit].
With `COc1ccc(C(=O)c2sc(NC(C)C)nc2N)cc1OC` the Potency was inconclusive: 29.1 µM [falling, partial curve, poor fit].
For `CCN=C1S/C(=C\c2ccc(O)c(OCC)c2)C(=O)N1CC`, the “activity change, negative = cytotoxicity” value was inactive: 3.36%.
In the case of `COc1ccc(C(=O)CSc2nc3cc(C(=O)NC4CCCC4)ccc3c(=O)n2CC2CCCO2)cc1` (stereo unspecified), the “activity change, negative = cytotoxicity” value is reported as inactive: 5.72%.
With `CCOc1ccc(CN2C(=O)c3ccccc3Sc3ccc(C(=O)NCc4ccc5c(c4)OCO5)cc32)cc1` the “activity change, negative = cytotoxicity” value was inactive: 4.14%.
In the case of `OCCCn1c(CCCNc2nc(-c3cccc(Br)c3)cs2)nc2cc(Cl)c(N3CCCCC3)cc21`, the Potency is reported as inconclusive: 20.6 µM [falling, partial curve, poor fit].
In the case of `Cc1ccc(/C(=N\O)c2oc3c(C)c4oc(=O)cc(C)c4cc3c2C)cc1`, the Potency is reported as inconclusive: 29.1 µM [falling, single point].
In the case of `COc1cc(OC)c(NC(=O)c2sc3nc4n(c(=O)c3c2C)CCCC4)cc1Cl`, the Potency is reported as inconclusive: 23.1 µM [activator, single point].
With `Cc1ccc(Cl)cc1N1CCN(C(=O)c2cc3c(=O)n(C)c4ccccc4c3n2C)CC1` the “activity change, negative = cytotoxicity” value was inactive: -18%.
For `CCCOc1cccc(C(=O)Nc2cc(-c3nc4ccccc4[nH]3)ccc2C)c1`, the Potency was inconclusive: 29.1 µM [falling, single point].
For `O=C(c1ccc(Cn2cc(Cl)c([N+](=O)[O-])n2)cc1)N1CCN(Cc2ccccc2)CC1`, the “activity change, negative = cytotoxicity” value was inactive: -11.4%.
In the case of `COc1ccc(N2CCN(C(CNC(=O)c3cccs3)c3ccco3)CC2)cc1` (stereo unspecified), the “activity change, negative = cytotoxicity” value is reported as inactive: 1.47%.
In the case of `C=CC[C@@H](CC(=O)N(CCO)Cc1ccccc1)C(=O)N[C@@H](COC(=O)[C@@H](CC=C)Cc1ccc(F)cc1)Cc1ccccc1`, the Potency is reported as inconclusive: 29.1 µM [falling, single point].
With `CCOc1cc(Cn2c(-c3ccc(O)c(OCC)c3)nc3ccccc32)ccc1O` the “activity change, negative = cytotoxicity” value was inactive: 6.9%.
In the case of `CC(C)CCNC(=O)C(c1ccncc1)N(Cc1cccs1)C(=O)Cn1nnc(-c2ccc(F)cc2)n1` (stereo unspecified), the Potency is reported as inconclusive: 9.2 µM [falling, partial curve, poor fit].
With `NC(=O)c1ccsc1NC(=O)c1ccc([N+](=O)[O-])o1` the “activity change, negative = cytotoxicity” value was inactive: -4.23%.
In the case of `Clc1ccc2nc(C3CCN(Cc4ccccc4)CC3)[nH]c2c1`, the Potency is reported as inconclusive: 32.6 µM [falling, single point].
With `N/C(=N\OC(=O)c1ccc(Cl)cc1[N+](=O)[O-])c1ccccn1` the Potency was inconclusive: 18.4 µM [falling, partial curve, poor fit].
For `CCn1c(O)c(N=NC(=O)c2cccc(S(=O)(=O)N3CCCCC3)c2)c2ccccc21`, the Potency was inconclusive: 18.4 µM [falling, single point].
With `COC(=O)C12OCC34C(CC5C(C)=C(O)C(=O)CC5(C)C3C(O)C1O)OC(=O)C(OC(=O)C=C(C)C)C24` (stereo unspecified) the Potency was inconclusive: 0.326 µM [falling, full curve].
In the case of `CC(C)NC1=C(Cl)C(=O)c2ccccc2C1=O`, the Potency is reported as inconclusive: 11.6 µM [falling, single point].
For `O=C(CSc1nnc(-c2ccccc2Br)n1-c1ccccc1)c1ccc(F)cc1`, the Potency was inconclusive: 23.1 µM [falling, single point].
In the case of `CC(C)Cn1c(N)c(C(=O)NCC2CCCO2)c2nc3ccccc3nc21` (stereo unspecified), the Potency is reported as inconclusive: 25.9 µM [falling, partial curve, poor fit].
For `Cc1cc(C)n(-c2cccc(Cl)c2)c(=O)c1C#N`, the “activity change, negative = cytotoxicity” value was inactive: -2.03%.
In the case of `C=CCn1c(SCc2csc(-c3ccc(C)cc3)n2)nnc1-c1ccccc1OC`, the Potency is reported as inconclusive: 29.1 µM [falling, single point].
With `COc1cc(/C=N/NC(=O)c2nnn(-c3nonc3N)c2C(C)C)ccc1OCc1ccc(F)cc1` the Potency was inconclusive: 16.4 µM [falling, partial curve, poor fit].
With `O=C(Cn1c(-c2cccs2)cc2ccccc21)NCCCN1CCN(c2cccc(Cl)c2)CC1` the Potency was inconclusive: 25.9 µM [falling, single point].
With `CS(=O)(=O)c1ncc(Cl)c(C(=O)N(Cc2ccc(Cl)cc2)Cc2ccco2)n1` the Potency was inconclusive: 29.1 µM [falling, single point].
For `CC(C)(C)OC(=O)N1CCC(c2nnc(SCc3ccccc3Cl)o2)CC1`, the “activity change, negative = cytotoxicity” value was inactive: -3.22%.
With `CNC(=S)N1CCN(c2ccc(Cl)c(Cl)c2)CC1` the “activity change, negative = cytotoxicity” value was inactive: 2.35%.
For `CCc1ccc2c(c1)C1(NN=C(c3ccccc3)S1)C(=O)N2` (stereo unspecified), the Potency was inconclusive: 25.9 µM [falling, single point].
In the case of `C[C@H](CO)N1C[C@H](C)[C@@H](CN(C)Cc2ccc(Cl)c(Cl)c2)Oc2c(NC(=O)CCC(F)(F)F)cccc2C1=O`, the “activity change, negative = cytotoxicity” value is reported as inactive: -14.2%.
With `Cc1ccc(C(=O)N2CC(=O)Nc3ccc(Br)cc3C2c2ccc(F)cc2)cc1C` (stereo unspecified) the Potency was inconclusive: 23.1 µM [falling, partial curve, poor fit].
For `COc1ccccc1C(=O)Nc1ccc2c(c1)nc1n2CCSC1`, the Potency was inconclusive: 29.1 µM [activator, single point].
For `O=C(NC(Nc1nc2ccc([N+](=O)[O-])cc2s1)(C(F)(F)F)C(F)(F)F)c1cccnc1`, the Potency was active: 7.31 µM.
In the case of `CCCN1CC(=O)N2Cc3[nH]c4ccccc4c3C[C@H]2C1=O`, the Potency is reported as inconclusive: 18.4 µM [falling, partial curve, poor fit].
With `Cc1nc2c(-c3ccccc3)c(C)[nH]n2c(=O)c1Cc1ccc(Br)cc1` the Potency was inconclusive: 9.2 µM [falling, partial curve, poor fit].
For `CC(C)(Oc1ccc(Cl)cc1)C(=O)N1CCN(C(=O)c2ccco2)CC1`, the “activity change, negative = cytotoxicity” value was inactive: 3.32%.
In the case of `C=CCN=C(NC#N)SCC(=O)c1cccc(OC)c1`, the “activity change, negative = cytotoxicity” value is reported as inactive: -4.44%.
With `CCSc1nc2sc3c(c2c2[n+]1CC(CBr)O2)CCCC3` (stereo unspecified) the “activity change, negative = cytotoxicity” value was inactive: 5.38%.
In the case of `CCOc1cc(/C=C2\CN(C)C/C(=C\c3ccc(O)c(OCC)c3)C2=O)ccc1O`, the Potency is reported as active: 13 µM.
For `CCc1ccc2[nH]c(=O)c(CN(CCCO)C(=O)NCc3ccccc3)cc2c1`, the Potency was inconclusive: 6.51 µM [activator, single point].
In the case of `Cc1ccc(NC(=S)NCc2ccc(Cl)cc2)c(C)c1`, the Potency is reported as inconclusive: 29.1 µM [falling, single point].
In the case of `CSc1ccccc1NC(=O)Nc1cccc(Cl)c1`, the Potency is reported as inconclusive: 29.1 µM [falling, single point].
In the case of `Cc1ccnc(SC2CC(=O)N(c3ccc([N+](=O)[O-])cc3)C2=O)n1` (stereo unspecified), the “activity change, negative = cytotoxicity” value is reported as inactive: 0.433%.
For `Cc1ccc2cc(CN(CC3CCCO3)C(=S)Nc3ccccc3)c(=O)[nH]c2c1C` (stereo unspecified), the Potency was inconclusive: 4.11 µM [falling, partial curve, poor fit].
For `CCN1CCN(Cc2nc3cc(NC(=O)c4cccc([N+](=O)[O-])c4)ccc3n2CC)CC1`, the “activity change, negative = cytotoxicity” value was inactive: 3.27%.
In the case of `CC(C)c1onc(C(=O)NC(C)c2ccccc2)c1[N+](=O)[O-]` (stereo unspecified), the Potency is reported as inconclusive: 16.4 µM [activator, partial curve, poor fit].
For `C=C1C(=O)C23CCC4C(C)(C(=O)OC)CCCC4(C)C2CCC1(O)C3` (stereo unspecified), the Potency was inconclusive: 16.4 µM [falling, single point].
With `Cc1cccnc1Nc1nc(-c2ccccn2)cs1` the Potency was inconclusive: 18.4 µM [falling, partial curve].
